{"source": "PubChem BioAssay AID1671195 (Yale University, 2021)", "assay": "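Genes whose knockdown alters LDL uptake in liver cancer cells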 (primary screen)", "cells": "human Huh7 hepatoma cells", "reagent": "siRNA pool against human genes, 18 nM", "duration": "about 2 to 2.5 days of knockdown, then 8 h LDL uptake", "conditions": "DiI-labelled LDL at 30 µg/ml for 8 h, in lipoprotein-deficient serum medium", "measured": "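Fluorescent LDL signal imaged in cells, scaled to the plate median, robust z-score for each replicate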", "direction": "robust z-score: higher = more LDL uptake after knockdown", "active means": "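Active when two or more replicates show a robust z-score above 2 or below -2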", "note": "The deposit covers about 22,000 reagents; this is a random part of them. Of all reagents, about 1,510 (6.9%) got an active call. 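Active includes knockdowns raising or lowering LDL uptake; positive z-scores mean more uptake, negative mean less.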 A number with no mark means an inactive call. Reagents against one gene are numbered here."}
The first 3 records as a preview:
{"target": "DCAF8 (GeneID 50717)", "reagent no.": 1, "robust z-score, replicate 1": -0.615, "robust z-score, replicate 2": -0.543, "robust z-score, replicate 3": -1.49}
{"target": "ATAD3C (GeneID 219293)", "reagent no.": 1, "robust z-score, replicate 1": -1.92, "robust z-score, replicate 2": -1.82, "robust z-score, replicate 3": -1.88}
{"target": "CHADL (GeneID 150356)", "reagent no.": 1, "robust z-score, replicate 1": -1.21, "robust z-score, replicate 2": -1.85, "robust z-score, replicate 3": -1.32}

Results, repeating the preview:
{"target": "DCAF8 (GeneID 50717)", "reagent no.": 1, "robust z-score, replicate 1": -0.615, "robust z-score, replicate 2": -0.543, "robust z-score, replicate 3": -1.49}
{"target": "ATAD3C (GeneID 219293)", "reagent no.": 1, "robust z-score, replicate 1": -1.92, "robust z-score, replicate 2": -1.82, "robust z-score, replicate 3": -1.88}
{"target": "CHADL (GeneID 150356)", "reagent no.": 1, "robust z-score, replicate 1": -1.21, "robust z-score, replicate 2": -1.85, "robust z-score, replicate 3": -1.32}
{"target": "TANC1 (GeneID 85461)", "reagent no.": 1, "robust z-score, replicate 1": 0.631, "robust z-score, replicate 2": 0.915, "robust z-score, replicate 3": 0.819}
{"target": "LAMTOR1 (GeneID 55004)", "reagent no.": 1, "robust z-score, replicate 1": 1.21, "robust z-score, replicate 2": -0.221, "robust z-score, replicate 3": -1.1}
{"target": "ZC3H6 (GeneID 376940)", "reagent no.": 1, "robust z-score, replicate 1": -1.08, "robust z-score, replicate 2": -1.14, "robust z-score, replicate 3": -1.04}
{"target": "PARP9 (GeneID 83666)", "reagent no.": 1, "robust z-score, replicate 1": 0.033, "robust z-score, replicate 2": 0.496, "robust z-score, replicate 3": -0.226}
{"target": "MECOM (GeneID 2122)", "reagent no.": 1, "robust z-score, replicate 1": -0.68, "robust z-score, replicate 2": -0.566, "robust z-score, replicate 3": -0.582}
{"target": "MECOM (GeneID 2122)", "reagent no.": 2, "robust z-score, replicate 1": -1.31, "robust z-score, replicate 2": -0.93, "robust z-score, replicate 3": -1.12}
{"target": "PIK3R4 (GeneID 30849)", "reagent no.": 1, "robust z-score, replicate 1": -0.493, "robust z-score, replicate 2": -0.538, "robust z-score, replicate 3": -0.89}
{"target": "TXNL1 (GeneID 9352)", "reagent no.": 1, "robust z-score, replicate 1": 1.69, "robust z-score, replicate 2": 1.29, "robust z-score, replicate 3": 0.612}
{"target": "LZTS1 (GeneID 11178)", "reagent no.": 1, "robust z-score, replicate 1": 0.684, "robust z-score, replicate 2": -1.07, "robust z-score, replicate 3": 0.0693}
{"target": "CTSL (GeneID 1514)", "reagent no.": 1, "robust z-score, replicate 1": 1.11, "robust z-score, replicate 2": 0.791, "robust z-score, replicate 3": 0.436}
{"target": "SELENBP1 (GeneID 8991)", "reagent no.": 1, "robust z-score, replicate 1": -0.893, "robust z-score, replicate 2": 0.785, "robust z-score, replicate 3": 0.33}
{"target": "ZNF286A (GeneID 57335)", "reagent no.": 1, "robust z-score, replicate 1": 0.4, "robust z-score, replicate 2": 0.132, "robust z-score, replicate 3": 0.161}
{"target": "DEFB118 (GeneID 117285)", "reagent no.": 1, "robust z-score, replicate 1": 0.212, "robust z-score, replicate 2": 1.06, "robust z-score, replicate 3": 0.573}
{"target": "NDUFC1 (GeneID 4717)", "reagent no.": 1, "robust z-score, replicate 1": 0.344, "robust z-score, replicate 2": -0.209, "robust z-score, replicate 3": -0.536}
{"target": "TBC1D9 (GeneID 23158)", "reagent no.": 1, "robust z-score, replicate 1": -1.06, "robust z-score, replicate 2": -1.4, "robust z-score, replicate 3": -1.47}
{"target": "FANCG (GeneID 2189)", "reagent no.": 1, "robust z-score, replicate 1": -1.14, "robust z-score, replicate 2": 0.287, "robust z-score, replicate 3": -0.531}
{"target": "HMMR (GeneID 3161)", "reagent no.": 1, "robust z-score, replicate 1": -1.93, "robust z-score, replicate 2": -1.81, "robust z-score, replicate 3": -0.868}
{"target": "PTPRD (GeneID 5789)", "reagent no.": 1, "robust z-score, replicate 1": 0.617, "robust z-score, replicate 2": 0.278, "robust z-score, replicate 3": 0.352}
{"target": "EZR (GeneID 7430)", "reagent no.": 1, "robust z-score, replicate 1": -1.06, "robust z-score, replicate 2": -2.16, "robust z-score, replicate 3": -0.78}
{"target": "LOC284623 (retired record) (GeneID 284623)", "reagent no.": 1, "robust z-score, replicate 1": 0.0389, "robust z-score, replicate 2": 0.0258, "robust z-score, replicate 3": -0.0926}
{"target": "SLC35G1 (GeneID 159371)", "reagent no.": 1, "robust z-score, replicate 1": 1.49, "robust z-score, replicate 2": 1.1, "robust z-score, replicate 3": 1.34}
{"target": "MRPL41 (GeneID 64975)", "reagent no.": 1, "robust z-score, replicate 1": 0.173, "robust z-score, replicate 2": -0.24, "robust z-score, replicate 3": 0.747}
{"target": "CRCT1 (GeneID 54544)", "reagent no.": 1, "robust z-score, replicate 1": -1.59, "robust z-score, replicate 2": 0.0825, "robust z-score, replicate 3": -2.34}
{"target": "LINC01141 (GeneID 339505)", "reagent no.": 1, "robust z-score, replicate 1": 0.138, "robust z-score, replicate 2": 0, "robust z-score, replicate 3": 0.351}
{"target": "HYAL4 (GeneID 23553)", "reagent no.": 1, "robust z-score, replicate 1": -0.601, "robust z-score, replicate 2": -0.688, "robust z-score, replicate 3": -0.462}
{"target": "LOC389099 (retired record) (GeneID 389099)", "reagent no.": 1, "robust z-score, replicate 1": 0.514, "robust z-score, replicate 2": 0.74, "robust z-score, replicate 3": 0.477}
{"target": "PDE6A (GeneID 5145)", "reagent no.": 1, "robust z-score, replicate 1": -0.801, "robust z-score, replicate 2": -0.484, "robust z-score, replicate 3": -0.0997}
